The target in the assay is GST-UreB (UreB fused with GST tag on its N-terminus) (Helicobacter pylori 26695) (UniProt P69996). Briefly: pull-down; GST-fused proteins on glutathione Sepharose 4B beads (20 μl), incubated with 0.4 ml purified Hsp60 (1 mg/ml in 50 mM Tris-HCl, pH 8.0) at 4°C for 2 h; washed four times; Western blot (anti-His) and SDS-PAGE; both purified. Background: In western blotting, separated proteins are transferred to a membrane and probed.

Protein sequences, listed by entry. Tags and fused reporters are not part of them. Residues count along the entry.
UniProt P69996, residues 2-569: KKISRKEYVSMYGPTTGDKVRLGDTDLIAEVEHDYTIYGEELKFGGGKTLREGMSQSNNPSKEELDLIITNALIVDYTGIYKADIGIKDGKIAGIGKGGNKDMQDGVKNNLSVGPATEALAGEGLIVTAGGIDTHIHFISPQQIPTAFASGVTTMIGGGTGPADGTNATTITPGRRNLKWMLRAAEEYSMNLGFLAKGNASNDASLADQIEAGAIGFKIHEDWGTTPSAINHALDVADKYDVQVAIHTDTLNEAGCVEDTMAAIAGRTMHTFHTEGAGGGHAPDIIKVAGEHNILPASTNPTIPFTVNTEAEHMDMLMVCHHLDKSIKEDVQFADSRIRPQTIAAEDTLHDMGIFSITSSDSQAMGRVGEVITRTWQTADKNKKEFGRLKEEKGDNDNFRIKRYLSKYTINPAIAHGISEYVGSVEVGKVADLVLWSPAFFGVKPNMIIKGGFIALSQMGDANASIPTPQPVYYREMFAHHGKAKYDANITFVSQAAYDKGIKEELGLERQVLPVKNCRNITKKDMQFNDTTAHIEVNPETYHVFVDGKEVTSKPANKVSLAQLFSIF
UniProt P42383: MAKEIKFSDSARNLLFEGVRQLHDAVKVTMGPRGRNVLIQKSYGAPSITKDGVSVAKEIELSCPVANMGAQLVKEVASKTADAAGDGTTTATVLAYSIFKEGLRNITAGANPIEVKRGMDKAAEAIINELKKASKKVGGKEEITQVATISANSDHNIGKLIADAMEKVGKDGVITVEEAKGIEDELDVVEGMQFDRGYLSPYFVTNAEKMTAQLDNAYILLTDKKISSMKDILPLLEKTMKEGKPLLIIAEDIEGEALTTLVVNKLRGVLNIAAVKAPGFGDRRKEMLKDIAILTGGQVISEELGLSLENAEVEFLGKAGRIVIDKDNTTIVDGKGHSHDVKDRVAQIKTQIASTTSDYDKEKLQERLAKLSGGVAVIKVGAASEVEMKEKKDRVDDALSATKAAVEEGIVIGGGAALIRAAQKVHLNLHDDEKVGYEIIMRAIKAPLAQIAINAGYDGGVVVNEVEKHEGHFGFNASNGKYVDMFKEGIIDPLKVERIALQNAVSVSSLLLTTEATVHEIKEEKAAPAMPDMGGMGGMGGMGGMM

These are yes or no findings as the source states them, for the method shown.

For the substance “Helicobacter pylori Hsp60 with a 6 × His tag on its C terminus (from UniProt P42383 1-546)”, the binding result was “no binding (tested: 1 mg/ml Hsp60)”.

(Values after PMC6370633.)
